Results on one compound are retold here after PubChem BioAssay AID284 (DTP/NCI, 2004).

The test has as its system BDF1 mice, L1210/MTX-resistant leukemia ip, survival T/C. The test can be described thus: NCI In Vivo Anticancer Drug Screen. Data for tumor model L1210 Leukemia resistant to Methotrexate; NSC 740 (intraperitoneal) in B6D2F1 (BDF1) mice. Conditions: T/C endpoint: mean survival time, schedule: Q01DX Z (ip), vehicle: saline, higher T/C = longer survival. As to the method:
The antitumor activity of compounds was measured in mice bearing transplantable tumors. Survival or tumor size were measured and the results are expressed as the measurement made in the treated group (T) divided by the measurement made in the vehicle treated control group (C). The tumor model used in this assay is L1210 Leukemia resistant to Methotrexate; NSC 740 (intraperitoneal) in B6D2F1 (BDF1) mice

The structures appear in SMILES notation. The list does not hold the whole screen: it gathers some chemical classes. Other doses and runs of a compound may be missing. T/C: endpoint of the treated group in % of that of the vehicle group. Where survival is the endpoint, this PubChem deposit counts one and a half times the control or more as active, and values a quarter to a half above the control carry no call in these data; other NCI protocols may use other cut-offs. Some entries show no survivor count and are marked so; the dose need not have been tolerated. Schedule codes are those of the source, taken here to give the interval after Q, in days (D) or hours (H), and the number of doses after X. Some schedule codes hold Z or #, which are not explained here. Some entries hold several experiments; their values stand side by side, smallest first.

For `CN(CCCl)CCCl`, the T/C by setting is: (dose: 0.25 mg/kg/injection) 120 [survivor count not shown], 131 [survivor count not shown], 170 % of control [survivor count not shown]; (dose: 0.5 mg/kg/injection) 99 [survivor count not shown] and 156 % of control [survivor count not shown]; (dose: 1.0 mg/kg/injection) 89 % of control [survivor count not shown].
